# Results are given in words; binding and its absence hold for the method and conditions named. In cells and extracts the contact can be indirect. Here binding means that the protein was enriched with, or labelled near, the bait; the list need not be complete.
# The chains behind the UniProt entries cited, without tags or fusion partners.
# UniProt P61088: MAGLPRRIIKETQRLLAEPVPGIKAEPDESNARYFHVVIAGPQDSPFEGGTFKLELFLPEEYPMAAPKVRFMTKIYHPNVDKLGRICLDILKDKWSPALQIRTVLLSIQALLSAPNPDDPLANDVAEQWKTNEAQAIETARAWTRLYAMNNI
# UniProt P19838: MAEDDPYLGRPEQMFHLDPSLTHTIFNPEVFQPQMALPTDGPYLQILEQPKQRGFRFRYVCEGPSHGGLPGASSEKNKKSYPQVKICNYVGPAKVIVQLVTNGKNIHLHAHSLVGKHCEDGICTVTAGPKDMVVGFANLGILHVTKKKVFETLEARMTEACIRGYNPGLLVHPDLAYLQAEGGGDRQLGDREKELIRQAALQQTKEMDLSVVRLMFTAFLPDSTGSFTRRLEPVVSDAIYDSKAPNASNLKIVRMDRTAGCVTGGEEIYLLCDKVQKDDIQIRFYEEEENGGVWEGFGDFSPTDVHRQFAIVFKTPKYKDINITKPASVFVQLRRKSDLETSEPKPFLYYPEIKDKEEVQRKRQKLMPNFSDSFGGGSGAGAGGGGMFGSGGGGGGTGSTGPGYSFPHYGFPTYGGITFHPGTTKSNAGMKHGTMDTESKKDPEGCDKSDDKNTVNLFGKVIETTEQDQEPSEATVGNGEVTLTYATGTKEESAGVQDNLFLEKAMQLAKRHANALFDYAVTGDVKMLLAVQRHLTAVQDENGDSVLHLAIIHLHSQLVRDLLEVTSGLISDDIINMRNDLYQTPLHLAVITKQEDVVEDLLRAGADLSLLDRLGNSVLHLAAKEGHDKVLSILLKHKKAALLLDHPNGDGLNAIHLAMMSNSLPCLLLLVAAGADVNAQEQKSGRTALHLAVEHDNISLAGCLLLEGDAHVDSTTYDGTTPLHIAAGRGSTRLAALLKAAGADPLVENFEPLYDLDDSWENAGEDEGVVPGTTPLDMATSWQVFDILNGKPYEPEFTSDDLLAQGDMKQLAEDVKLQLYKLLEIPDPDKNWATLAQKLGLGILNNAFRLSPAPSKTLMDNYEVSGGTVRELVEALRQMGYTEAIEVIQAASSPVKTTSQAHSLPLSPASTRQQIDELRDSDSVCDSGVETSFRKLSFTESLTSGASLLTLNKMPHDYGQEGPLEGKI
# UniProt Q9Y6K9: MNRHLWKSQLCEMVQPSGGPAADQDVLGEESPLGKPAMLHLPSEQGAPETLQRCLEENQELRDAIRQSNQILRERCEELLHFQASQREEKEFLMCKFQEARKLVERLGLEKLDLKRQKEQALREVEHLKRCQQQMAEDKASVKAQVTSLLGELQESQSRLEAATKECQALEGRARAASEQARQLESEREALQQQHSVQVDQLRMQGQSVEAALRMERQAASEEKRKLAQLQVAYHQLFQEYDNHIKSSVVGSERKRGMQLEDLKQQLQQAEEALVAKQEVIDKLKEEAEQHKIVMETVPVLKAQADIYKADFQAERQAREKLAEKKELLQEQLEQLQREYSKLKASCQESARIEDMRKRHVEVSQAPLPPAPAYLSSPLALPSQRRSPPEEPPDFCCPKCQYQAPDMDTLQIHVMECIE
# UniProt Q16539: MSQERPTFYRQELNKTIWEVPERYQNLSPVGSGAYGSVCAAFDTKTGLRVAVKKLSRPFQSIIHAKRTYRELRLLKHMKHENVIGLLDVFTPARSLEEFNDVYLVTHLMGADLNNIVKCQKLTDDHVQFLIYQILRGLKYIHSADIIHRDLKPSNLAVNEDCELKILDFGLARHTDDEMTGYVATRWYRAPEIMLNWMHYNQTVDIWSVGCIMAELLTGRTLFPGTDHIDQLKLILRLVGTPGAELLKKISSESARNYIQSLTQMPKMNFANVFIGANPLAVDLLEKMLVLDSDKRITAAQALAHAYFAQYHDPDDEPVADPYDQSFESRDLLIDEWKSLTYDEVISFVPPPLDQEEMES
# Target: UBE2N-V5-APEX2 (UniProt P61088)
# Experiment: proximity labelling; doxycycline-inducible UBE2N-V5-APEX2; biotin phenol and hydrogen peroxide; biotinylated proteins pulled down and analysed by LC-MS/MS; compared with the DOX-untreated sample
row,binding,Substance
1,binds,NFKB1 (from UniProt P19838 1-968)
2,binds,IKBKG/IKKγ (from UniProt Q9Y6K9 1-419)
3,binds,MAPK14 (from UniProt Q16539 1-360)

# Reference: article PMC12077902
